The target in experiment [1] is Phosphoglycerate mutase 1 (PGAM1), endogenous (human (endogenous in A549)) (UniProt P18669). Put plainly: co-IP; anti-PGAM1 immunoprecipitation from lung tumour tissues and adjacent normal tissues of ten patients, western blot. Background: Immunoblotting shows a protein as a band on a membrane.
Experiment [2] concerns the target Flag-PGAM1 wild type (human) (UniProt P18669). Put plainly: co-IP; Flag-PGAM1 immunoprecipitate from A549 held on anti-Flag agarose beads and treated with PTP1B (1 μg/μL) for 30 min, then eluted, western blot.
The target in experiment [3] is Phosphoglycerate mutase 1 (PGAM1), endogenous (human (endogenous in A549)) (UniProt P18669). Nature of the experiment: co-IP; anti-PGAM1 immunoprecipitation from whole-cell lysates of untransformed cells (HBE-2, MCF-10A, GES-1, activated T and naive T cells), western blot.
For a further experiment, the target named is T1, Flag-PGAM1 Y119E (human) (UniProt P18669).
T1 sequence: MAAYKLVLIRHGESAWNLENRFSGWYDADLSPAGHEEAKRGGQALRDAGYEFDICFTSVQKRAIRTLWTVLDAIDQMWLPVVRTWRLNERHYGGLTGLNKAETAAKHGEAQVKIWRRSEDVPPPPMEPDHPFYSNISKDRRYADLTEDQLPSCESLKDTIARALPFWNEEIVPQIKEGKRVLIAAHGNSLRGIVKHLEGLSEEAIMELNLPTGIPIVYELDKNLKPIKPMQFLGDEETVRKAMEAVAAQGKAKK
Put plainly: co-IP; anti-Flag immunoprecipitation from A549 transfected with Flag-PGAM1 or its mutants for 48 h, western blot for PKM2; with or without PKM2 or HA-Src overexpression, EGF, FGF1 or PDGFA.

Chains of the proteins cited; added tags and fusions are not shown.
UniProt P14618: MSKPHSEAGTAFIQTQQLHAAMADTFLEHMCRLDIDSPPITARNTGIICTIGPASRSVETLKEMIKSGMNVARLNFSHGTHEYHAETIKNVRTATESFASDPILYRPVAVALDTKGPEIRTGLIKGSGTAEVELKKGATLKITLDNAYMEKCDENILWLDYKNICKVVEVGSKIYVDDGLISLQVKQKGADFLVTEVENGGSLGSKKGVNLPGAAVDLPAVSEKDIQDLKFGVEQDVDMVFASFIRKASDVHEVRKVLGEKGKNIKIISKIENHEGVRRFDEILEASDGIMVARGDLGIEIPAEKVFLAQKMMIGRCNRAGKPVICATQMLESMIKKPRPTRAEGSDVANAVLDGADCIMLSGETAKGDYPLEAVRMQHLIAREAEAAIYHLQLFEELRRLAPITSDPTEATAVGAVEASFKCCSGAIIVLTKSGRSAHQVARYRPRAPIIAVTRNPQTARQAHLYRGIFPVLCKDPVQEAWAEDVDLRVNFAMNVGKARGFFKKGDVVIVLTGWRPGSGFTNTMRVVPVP

The target in another experiment is T2, Flag-PGAM1 Y26E (human) (UniProt P18669).
T2 sequence: T1 sequence with Y26E, E119Y
Described as above.

For another experiment, the target named is T3, Flag-PGAM1 Y50E (human) (UniProt P18669).
T3 sequence: T1 sequence with Y50E, E119Y
The experiment is described as above.

The next experiment has as its target T4, Flag-PGAM1 Y92E (human) (UniProt P18669).
T4 sequence: T1 sequence with Y92E, E119Y
The experiment is described as above.

Experiment [4] concerns the target Flag-PGAM1 wild type (human) (UniProt P18669). Described as above.
For experiment [5], the target named is Phosphoglycerate mutase 1 (PGAM1), endogenous (human (endogenous in A549)) (UniProt P18669). Put plainly: condition: only cells treated with TEPP46 (50 μM, 24 h) to stabilise the PKM2 tetramer; co-IP; anti-PGAM1 immunoprecipitation from A549 treated with TEPP46 (50 μM, 24 h) to stabilise the PKM2 tetramer, western blot.
Experiment [6] concerns the target Flag-PGAM1 wild type (human) (UniProt P18669). Put plainly: condition: only cells treated with Afatinib (1 μM, 3 h) before EGF; co-IP; anti-Flag immunoprecipitation from Flag-PGAM1-transfected, serum-starved A549 treated with Afatinib (1 μM, 3 h) before EGF (100 ng/mL, 30 min), western blot.

Where a chain is given by its changes, count along the chain named. Results are given in words; binding and its absence hold for the method and conditions named. In cells and extracts the contact can be indirect. Some results given as binding are weak or reduced against the parent protein; the word gives no strength. For some of these results: Where a sequence is shown, tags or fusion partners need not be part of it.

On to “Pyruvate kinase M2 (PKM2), endogenous (from UniProt P14618 1-531) (enzyme)”, for which the binding entry in experiment [1] was “binds”; in [2], “binds weakly”; in experiment [3], “binds weakly”; with Flag-PGAM1 Y119E (human), “binds”; in the experiment with Flag-PGAM1 Y26E (human), “binds”; with Flag-PGAM1 Y50E (human) it was “binds”. Moreover, the binding result in the experiment with Flag-PGAM1 Y92E (human) is on record as “binds”; in experiment [4], “binds”; in experiment [5] it was “no binding”; in experiment [6], “no binding”.

These data come from PMC11183095.
